Results: publication PMC4303232
Results are given in words; binding and its absence hold for the method and conditions named. In cells and extracts the contact can be indirect. Some entries that bind do so weakly or less than the wild type.

Amino acid sequences for entries named in this document (tags omitted). A change or cut given only in a name is not applied to a line headed by its entry.
UniProt Q15121: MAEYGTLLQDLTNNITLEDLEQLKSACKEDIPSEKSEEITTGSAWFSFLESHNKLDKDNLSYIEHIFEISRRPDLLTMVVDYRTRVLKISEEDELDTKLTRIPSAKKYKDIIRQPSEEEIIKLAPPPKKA
UniProt Q13158: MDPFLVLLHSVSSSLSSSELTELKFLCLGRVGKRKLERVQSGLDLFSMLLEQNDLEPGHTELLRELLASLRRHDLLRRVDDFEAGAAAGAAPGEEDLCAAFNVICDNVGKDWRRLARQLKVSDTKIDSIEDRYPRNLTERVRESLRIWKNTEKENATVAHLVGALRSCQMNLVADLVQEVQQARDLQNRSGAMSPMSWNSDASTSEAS

How the values were obtained:
[1] = biological target: Flag-tagged PEA15 S116A mutant (UniProt Q15121); assay: co-IP; BT 474 cells stably expressing flag-tagged WT-PEA15 or PEA15-S116A, seeded in methyl cellulose for two days; immunoprecipitated with anti-flag antibody; immunoblot
[2] = biological target: Flag-tagged wild-type PEA15 (UniProt Q15121); assay: as above

“Fas-associated death domain protein (FADD), endogenous (from UniProt Q13158 1-208)” was tested, and the binding [1] was “binds” and the binding [2] was “binds”.
